{
  "source": "patent US20170226145A1",
  "about": "“METHODS OF EXTRACTION AND PURIFICATION FROM STEVIA REBAUDIANA OF COMPOSITIONS WITH ENHANCED REBAUDIOSIDE-M CONTENT, USES OF SAID COMPOSITION AND NATURAL SWEETENER COMPOSITIONS WITH SAID COMPOSITION” (GLG LIFE TECH CORPORATION, priority 2014, published 2017)",
  "origin": "cited, not measured here",
  "data": [
    {"conditions": "Table 1, background data; cited from earlier work", "values": [
      {"compound": "C=C1C[C@@]23CC[C@H]4[C@@](C)(CCC[C@@]4(C)C(=O)O[C@@H]4O[C@H](CO)[C@@H](O)[C@H](O)[C@H]4O)[C@@H]2CC[C@]1(O[C@@H]1O[C@H](CO)[C@@H](O)[C@H](O)[C@H]1O[C@@H]1O[C@H](CO)[C@@H](O)[C@H](O)[C@H]1O)C3", "note": "[Stevioside]", "Quality of taste": "Bitter"},
      {"compound": "C=C1C[C@@]23CC[C@H]4[C@@](C)(CCC[C@@]4(C)C(=O)O[C@@H]4O[C@H](CO)[C@@H](O)[C@H](O)[C@H]4O)[C@@H]2CC[C@]1(O[C@@H]1O[C@H](CO)[C@@H](O)[C@H](O)[C@H]1O[C@@H]1O[C@@H](C)[C@H](O)[C@@H](O)[C@H]1O)C3", "note": "[Dulcoside A]", "Quality of taste": "Very bitter"},
      {"compound": "C=C1C[C@@]23CC[C@H]4[C@@](C)(CCC[C@@]4(C)C(=O)O)[C@@H]2CC[C@]1(O)C3", "note": "[Steviol]", "Quality of taste": "Very bitter"},
      {"compound": "C=C1C[C@@]23CC[C@H]4[C@@](C)(CCC[C@@]4(C)C(=O)O[C@@H]4O[C@H](CO)[C@@H](O)[C@H](O)[C@H]4O[C@@H]4O[C@H](CO)[C@@H](O)[C@H](O)[C@H]4O)[C@@H]2CC[C@]1(O[C@@H]1O[C@H](CO)[C@@H](O)[C@H](O[C@@H]2O[C@H](CO)[C@@H](O)[C@H](O)[C@H]2O)[C@H]1O[C@@H]1O[C@H](CO)[C@@H](O)[C@H](O)[C@H]1O)C3", "note": "[Rebaudioside D]", "Quality of taste": "Like sucrose"},
      {"compound": "C=C1C[C@@]23CC[C@H]4[C@@](C)(CCC[C@@]4(C)C(=O)O)[C@@H]2CC[C@]1(O[C@@H]1O[C@H](CO)[C@@H](O)[C@H](O)[C@H]1O[C@@H]1O[C@H](CO)[C@@H](O)[C@H](O)[C@H]1O)C3", "note": "[Steviolbioside]", "Quality of taste": "Unpleasant"},
      {"compound": "C=C1C[C@@]23CC[C@H]4[C@@](C)(CCC[C@@]4(C)C(=O)O[C@@H]4O[C@H](CO)[C@@H](O)[C@H](O)[C@H]4O)[C@@H]2CC[C@]1(O[C@@H]1O[C@H](CO)[C@@H](O)[C@H](O)[C@H]1O)C3", "note": "[Rubusoside]", "Quality of taste": "Very bitter"},
      {"compound": "Rebaudioside C", "Quality of taste": "Biutter"},
      {"compound": "C=C1C[C@@]23CC[C@H]4[C@@](C)(CCC[C@@]4(C)C(=O)O[C@@H]4O[C@H](CO)[C@@H](O)[C@H](O)[C@H]4O[C@@H]4O[C@H](CO)[C@@H](O)[C@H](O)[C@H]4O)[C@@H]2CC[C@]1(O[C@@H]1O[C@H](CO)[C@@H](O)[C@H](O)[C@H]1O[C@@H]1O[C@H](CO)[C@@H](O)[C@H](O)[C@H]1O)C3", "note": "[Rebaudioside E]", "Quality of taste": "Like sucrose"},
      {"compound": "Rebaudioside B", "Quality of taste": "Bitter"}
    ]}
  ]
}
